In publication PMC8990462 one finds binding data, which are given here for two molecules.

The chains behind the UniProt entries cited, without tags or fusion partners.
UniProt P54578: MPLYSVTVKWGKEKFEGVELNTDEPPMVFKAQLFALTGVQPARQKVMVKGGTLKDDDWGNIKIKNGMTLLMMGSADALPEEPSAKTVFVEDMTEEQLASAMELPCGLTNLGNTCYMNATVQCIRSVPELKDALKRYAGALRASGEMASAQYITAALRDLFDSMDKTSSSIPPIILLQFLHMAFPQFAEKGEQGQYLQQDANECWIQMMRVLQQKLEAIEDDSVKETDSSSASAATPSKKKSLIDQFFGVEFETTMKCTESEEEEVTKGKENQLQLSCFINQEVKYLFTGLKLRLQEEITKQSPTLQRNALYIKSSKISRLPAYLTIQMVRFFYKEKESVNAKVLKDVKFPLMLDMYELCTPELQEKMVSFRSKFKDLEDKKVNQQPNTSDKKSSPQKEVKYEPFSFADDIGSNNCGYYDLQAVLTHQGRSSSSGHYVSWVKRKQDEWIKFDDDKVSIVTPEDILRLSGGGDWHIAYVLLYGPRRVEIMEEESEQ

For test [1], the target named is T1, Flag-tagged Angiotensin II type 1 receptor-associated protein (Flag-ATRAP) (UniProt Q6RW13).
T1 sequence: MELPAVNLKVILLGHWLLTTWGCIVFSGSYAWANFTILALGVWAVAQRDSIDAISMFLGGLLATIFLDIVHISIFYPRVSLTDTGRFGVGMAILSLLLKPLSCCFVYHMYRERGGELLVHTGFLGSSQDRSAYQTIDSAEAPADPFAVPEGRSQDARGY
Nature of the test: co-IP; anti-Flag antibody cross-linked to magnetic beads (Pierce Crosslinked Magnetic Bead IP/Co-IP Kit), lysate of MDA-MB-453 or T47D cells transfected with Flag-ATRAP, overnight at 4 C, western blot of the eluate. On the technique in general: Immunoblotting shows a protein as a band on a membrane.

The target in test [2] is T2, Pre-B cell leukemia homeobox 3 (PBX3), endogenous (human (endogenous in MDA-MB-453, T47D and UACC-812)) (UniProt P40426).
T2 sequence: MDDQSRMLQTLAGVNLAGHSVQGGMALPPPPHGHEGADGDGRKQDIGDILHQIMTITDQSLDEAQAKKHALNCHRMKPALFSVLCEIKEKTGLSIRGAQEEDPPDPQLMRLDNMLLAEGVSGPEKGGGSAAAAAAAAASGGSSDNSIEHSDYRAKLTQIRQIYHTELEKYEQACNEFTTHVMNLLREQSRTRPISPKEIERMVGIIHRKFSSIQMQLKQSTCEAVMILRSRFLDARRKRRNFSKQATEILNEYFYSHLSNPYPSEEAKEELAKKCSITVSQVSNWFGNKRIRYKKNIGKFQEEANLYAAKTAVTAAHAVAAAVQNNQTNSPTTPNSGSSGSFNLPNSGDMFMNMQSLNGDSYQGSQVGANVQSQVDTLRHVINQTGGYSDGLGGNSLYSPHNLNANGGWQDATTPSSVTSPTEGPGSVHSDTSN
Put plainly: co-IP; antibody against endogenous PBX3 cross-linked to magnetic beads, lysate of UACC-812 and T47D cells, overnight at 4 C, western blot of the eluate.

In test [3] the target is Ubiquitin-specific protease 14 (USP14), endogenous (human (endogenous in MDA-MB-453 and UACC-812)) (UniProt P54578). Nature of the test: co-IP; anti-USP14 antibody cross-linked to magnetic beads, lysate of UACC-812 cells, overnight at 4 C, western blot of the eluate.

These are yes or no findings as the source states them, for the method shown. Binding seen in cells or lysates may run through a third protein. Some entries that bind do so weakly or less than the wild type. For part of these data: Tags and fused reporters may be left off the sequences shown.

B1: Pre-B cell leukemia homeobox 3 (PBX3), endogenous (protein, UniProt P40426 1-434)
chain: MDDQSRMLQTLAGVNLAGHSVQGGMALPPPPHGHEGADGDGRKQDIGDILHQIMTITDQSLDEAQAKKHALNCHRMKPALFSVLCEIKEKTGLSIRGAQEEDPPDPQLMRLDNMLLAEGVSGPEKGGGSAAAAAAAAASGGSSDNSIEHSDYRAKLTQIRQIYHTELEKYEQACNEFTTHVMNLLREQSRTRPISPKEIERMVGIIHRKFSSIQMQLKQSTCEAVMILRSRFLDARRKRRNFSKQATEILNEYFYSHLSNPYPSEEAKEELAKKCSITVSQVSNWFGNKRIRYKKNIGKFQEEANLYAAKTAVTAAHAVAAAVQNNQTNSPTTPNSGSSGSFNLPNSGDMFMNMQSLNGDSYQGSQVGANVQSQVDTLRHVINQTGGYSDGLGGNSLYSPHNLNANGGWQDATTPSSVTSPTEGPGSVHSDTSN
Take B1: the binding entry in test [1] is “binds”.

B2: Angiotensin II type 1 receptor-associated protein (ATRAP), endogenous (protein, UniProt Q6RW13 1-159)
chain: MELPAVNLKVILLGHWLLTTWGCIVFSGSYAWANFTILALGVWAVAQRDSIDAISMFLGGLLATIFLDIVHISIFYPRVSLTDTGRFGVGMAILSLLLKPLSCCFVYHMYRERGGELLVHTGFLGSSQDRSAYQTIDSAEAPADPFAVPEGRSQDARGY
As to B2, the binding result in test [2] and in test [3] was “binds” throughout.
